# Measurements published in PubChem BioAssay AID504467 (National Center for Advancing Translational Sciences (NCATS), 2011).
# In all, about 330,000 compounds went through this assay and about 7,700 (2.3%) were called active. This list was built around the results that the source calls inconclusive (neither active nor inactive); the mix of calls is not that of the screen. Calls come from the whole dose curve; as a rule, active = well fitted inhibition curve with a large enough effect; inconclusive = small, poorly fitted or top-dose-only effect, or effect the other way; inactive = flat fitted curve, though single readings scatter. Where the call is inconclusive, the potency comes from a doubtful curve fit.
# Test: qHTS screen for small molecules that inhibit ELG1-dependent DNA repair in human embryonic kidney (HEK293T) cells expressing luciferase-tagged ELG1; note: nearly all actives have a fitted effect of over 55% in size
# Details: HEK293T ELG1-luciferase reporter, luminescence, 16 h, DNA damage induced by 5-fluorouridine; series mostly up to 46.1 µM
# How it was run: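 Overnight (16 hr) co-exposure of 2,000 cells/well to 5-fluorouridine and compound at 37 °C preceded detection. Luciferase was quantified via ONE-Glo luminescence; loss of signal denotes inhibition.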
# Potency is the fitted concentration of half-maximal effect.
row,SMILES,Potency
1,O=C(NCc1cccnc1)C(=O)Nc1nc2ccccc2s1,"inconclusive: 13 µM [activator, partial curve]"
2,CCOCCCn1c(SCC(=O)NCc2ccc3c(c2)OCO3)nc2ccccc2c1=O,"inconclusive: 18.3 µM [inhibitor, single point]"
3,CC1CCCCN1S(=O)(=O)c1ccc(S(=O)(=O)N2CCN(c3ccc(F)cc3)CC2)cc1 (stereo not drawn),"inconclusive: 29.1 µM [activator, single point]"
4,CCN(CC)S(=O)(=O)c1cccc(C(=O)Nc2ccc(S(=O)(=O)NC3=NCCCCC3)cc2)c1,"inconclusive: 29.1 µM [inhibitor, single point]"
5,CC(C)=CCN1CCC(n2nccc2NC(=O)c2ccccc2Cl)CC1,inactive
6,COc1cccc(/C=N/n2c(-c3ccco3)nc3ccccc3c2=O)c1OC,active: 5.17 µM
7,O=C(c1ccc(F)cc1)C(CN1CCOCC1)c1ccccc1 (stereo not drawn),"inconclusive: 23.1 µM [inhibitor, single point]"
8,COc1cc(C(=O)NCCOc2cccc(C)c2)c(Br)c(OC)c1OC,"inconclusive: 7.31 µM [inhibitor, partial curve, poor fit]"
9,COc1cccc(C(=O)Nc2ccc(S(=O)(=O)N3CCN(C)CC3)cc2)c1,"inconclusive: 29.1 µM [activator, single point]"
10,CNC(=S)N(CCc1c(C)[nH]c2ccc(Cl)cc12)Cc1cc(OC)c(OC)c(OC)c1,"inconclusive: 20.6 µM [inhibitor, single point]"
11,CCOc1ccc(CN(CCC#N)C(=S)NC(=O)c2ccccc2)cc1,inactive
12,COCCNC(=O)COC(=O)c1cc(-c2ccc(OC)cc2)nc2ccccc12,"inconclusive: 14.6 µM [activator, partial curve]"
13,C=CC(=O)OCCOCCOCCOCCOC(=O)C=C,"inconclusive: 29.1 µM [inhibitor, single point]"
14,CSCc1nnc(NC(=O)c2ccc(S(=O)(=O)N(C)C)cc2)o1,"inconclusive: 18.3 µM [inhibitor, single point]"
15,Cc1cc(NC(=O)COc2cccc([N+](=O)[O-])c2)no1,"inconclusive: 16.4 µM [inhibitor, single point]"
16,OCCC1CN(Cc2ccc(Oc3ncccn3)cc2)CCN1C1CCCC1 (stereo not drawn),inactive
17,C=C1C[C@@]23CCC4[C@@](C)(CCC[C@@]4(C)C(=O)OC)C2CC[C@]1(OC(C)=O)C3 (stereo partly drawn),inactive
18,CCN(c1ccccc1)S(=O)(=O)c1ccc(C(=O)NCc2ccco2)cc1,"inconclusive: 23.1 µM [inhibitor, partial curve]"
19,COc1ccc(NC(=O)N2CCCC(CCC(=O)N(C)CCc3ccccn3)C2)cc1 (stereo not drawn),"inconclusive: 32.6 µM [activator, single point]"
20,O=C(NCC(c1cccs1)N1CCOCC1)c1ccccc1NS(=O)(=O)c1cccc([N+](=O)[O-])c1 (stereo not drawn),"inconclusive: 29.1 µM [inhibitor, single point]"
21,CC(C)CC(=O)Nc1ccc(-c2cn3cccnc3n2)cc1,"inconclusive: 23.1 µM [activator, partial curve]"
22,CCOC(=O)c1ccc(-n2c(C)nc3ccc(Br)cc3c2=O)cc1,"inconclusive: 18.3 µM [inhibitor, single point]"
23,CC(=O)N1CCSc2ccc(S(=O)(=O)NCCc3ccc(Cl)cc3)cc21,"inconclusive: 4.61 µM [inhibitor, partial curve, poor fit]"

# 3 entries from above, arranged by length of the SMILES, low to high:
row,SMILES,Potency
1,O=C(NCc1cccnc1)C(=O)Nc1nc2ccccc2s1,"inconclusive: 13 µM [activator, partial curve]"
22,CCOC(=O)c1ccc(-n2c(C)nc3ccc(Br)cc3c2=O)cc1,"inconclusive: 18.3 µM [inhibitor, single point]"
9,COc1cccc(C(=O)Nc2ccc(S(=O)(=O)N3CCN(C)CC3)cc2)c1,"inconclusive: 29.1 µM [activator, single point]"

# Remaining list, next part:

row,SMILES,Potency
1,COc1ccc(CNc2cc(NCCCO)c([N+](=O)[O-])c3nonc23)cc1,active: 20.6 µM
2,CC(C)(O)c1cc2ccc(C#Cc3ccsc3)cc2c(=O)o1,"inconclusive: 5.17 µM [activator, single point]"
3,CCC(=O)Nc1ccc2c(c1)OCCO2,"inconclusive: 29.1 µM [activator, partial curve, poor fit]"
4,CC1CCCN(c2ccc(C(=O)NCc3ccco3)cc2[N+](=O)[O-])C1 (stereo not drawn),"inconclusive: 29.1 µM [inhibitor, single point]"
5,CCN/N=C(\Cc1nc2ccccc2[nH]1)c1ccccc1,"inconclusive: 20.6 µM [inhibitor, partial curve]"
6,CCOc1cccc2sc(N3CCN(C(=O)c4ccc5ncsc5c4)CC3)nc12,inactive
7,CN(C)S(=O)(=O)n1cc(/C=C(\NC(=O)c2ccccc2)C(=O)NCCCN2CCOCC2)c2ccccc21,"inconclusive: 32.6 µM [activator, partial curve, poor fit]"
8,COc1ccc(N/N=C(/C(N)=O)C2=NC(C)(C)Cc3ccccc32)cc1,active: 23.1 µM
9,COc1ccc(CCNC(=O)COC(=O)c2ccc(S(=O)(=O)N3CCCC3)cc2)cc1OC,"inconclusive: 16.4 µM [activator, single point]"
10,Cn1nnnc1SCC(=O)NC1CCCC1,inactive
11,C=CC[n+]1c(-c2ccc(C)cc2)csc1NNC(=O)Nc1ccccc1,"inconclusive: 2.91 µM [activator, partial curve]"
12,CC(=O)Nc1ccc(NS(=O)(=O)c2cc(-c3n[nH]c(=O)c4ccccc34)ccc2C)cc1,inactive
13,CCN1CCN(CC(=O)Nc2nc3ccc(OC)cc3s2)CC1,"inconclusive: 13 µM [activator, partial curve, poor fit]"
14,CC(=O)N1CCN(S(=O)(=O)c2cccc(C(=O)NNC(=O)COc3ccc(F)cc3)c2)CC1,inactive
15,Cc1c(-c2cccc(Cl)c2)nc2ccccc2c1C(=O)OC/C(O)=C(\C#N)c1nc2ccccc2[nH]1,"inconclusive: 6.51 µM [inhibitor, single point]"
16,O=C1CS(=O)(=O)c2ccccc2N1,inactive
17,COCCN(C(=O)CSc1nnc(-c2ccco2)n1C)c1c(N)n(CC(C)C)c(=O)[nH]c1=O,inactive
18,CCOC(=O)C1(Cc2cccc(OC)c2)CCN(Cc2cccc3c2OCO3)CC1,"inconclusive: 18.3 µM [inhibitor, single point]"
19,Cc1cc(CNC(=O)COC(=O)C2CC3CCCC(C2)C3=O)cc(C)c1O (stereo not drawn),inactive
20,Cc1ccc(NC(=O)C(=O)NCc2ccc(/C=N/NC(=O)c3c(C)nc4ccccn34)o2)cc1,inactive
21,CCCN(CC(=O)Nc1ccccc1OC)C(=O)CCNC(=O)c1ccccc1OC,"inconclusive: 5.8 µM [activator, partial curve, poor fit]"
22,Cc1noc(C)c1-c1nc(CSc2ccccc2)no1,"inconclusive: 29.1 µM [activator, single point]"
23,C=CCOc1ccc2ccccc2c1/C=N/O,"inconclusive: 29.1 µM [activator, partial curve, poor fit]"

# Reprinted from the results shown (three entries):
row,SMILES,Potency
8,COc1ccc(N/N=C(/C(N)=O)C2=NC(C)(C)Cc3ccccc32)cc1,active: 23.1 µM
9,COc1ccc(CCNC(=O)COC(=O)c2ccc(S(=O)(=O)N3CCCC3)cc2)cc1OC,"inconclusive: 16.4 µM [activator, single point]"
10,Cn1nnnc1SCC(=O)NC1CCCC1,inactive

# Going on with the list.

row,SMILES,Potency
1,COCc1ccc(C(=O)N2CCCC(Nc3ccc4c(c3)OCCO4)C2)o1 (stereo not drawn),inactive
2,O=C(CN1C(=O)NC2(CCCCC2)C1=O)Nc1cccc2ncccc12,inactive
3,Cc1ccc(NC(=S)Nc2cccc3cnccc23)cc1,"inconclusive: 23.1 µM [inhibitor, single point]"
4,Cc1cc(C)c2c(=O)n(-c3ccccc3)[nH]c2n1,"inconclusive: 15.8 µM [activator, single point]"
5,CN(C)c1nc2ccc(OCCN3CCCCC3)cc2s1,"inconclusive: 20.6 µM [activator, partial curve]"
6,COc1ccc(CN(Cc2nc3ccccc3c(=O)[nH]2)C(=O)NC2CCCCC2)cc1,"inconclusive: 25.9 µM [inhibitor, single point]"
7,Fc1ccc(-c2ccc(Nc3cccc(F)c3)nn2)cc1,"inconclusive: 16.4 µM [activator, partial curve, poor fit]"
8,CC(=C/c1ccccc1)/C=N/NC(=O)c1nnn(-c2nonc2N)c1CN1CCC(C)CC1,"inconclusive: 16.4 µM [inhibitor, partial curve]"
9,CC1CCCN(CCCOc2ccccc2-c2ccccc2)C1 (stereo not drawn),inactive
10,Cc1cccc(C)c1N1CCN(C(=O)Nc2ccc3c(c2)OCCO3)CC1,"inconclusive: 7.31 µM [activator, partial curve]"
11,O=C(CSc1ccccc1)N1CCc2ccccc21,"inconclusive: 18.4 µM [activator, partial curve]"
12,COc1ccc(OC)c(NC(=O)CCc2nnc3ccc(N4CCC(C)CC4)nn23)c1,"inconclusive: 9.2 µM [inhibitor, partial curve, poor fit]"
13,CS(=O)(=O)N(CC(=O)Nc1ccccc1C(=O)N1CCOCC1)c1ccc(F)c(Cl)c1,inactive
14,Cn1cccc1C(=O)NC(=O)COC(=O)c1ccccc1O,inactive
15,CCOc1ccc2nc(NC(=O)CN3C(=O)C4CCCCC4C3=O)sc2c1 (stereo not drawn),"inconclusive: 23.1 µM [activator, single point]"
16,CCOC(=O)c1c(-c2ccsc2)csc1N,inactive
18,Cn1c(=O)c2cc(S(=O)(=O)Nc3cc(C(=O)O)cc(C(=O)O)c3)ccc2n(C)c1=O,"inconclusive: 6.51 µM [inhibitor, single point]"
19,CCOc1ccc2nc(NC(=O)CSc3cn[nH]n3)sc2c1,"inconclusive: 20.6 µM [activator, partial curve]"
20,CC(C)(C)C(=O)N1CCN(c2nc3ccccc3o2)CC1,inactive
21,O=C(NCc1ccc2c(c1)OCO2)c1ccc2c(c1)N(Cc1c(F)cccc1Cl)C(=O)CS2,"inconclusive: 23.1 µM [inhibitor, single point]"
22,Cc1ccc(NC(=O)CSc2nnc(-c3ccoc3C)n2CCCN(C)C)cc1Cl,"inconclusive: 20.6 µM [activator, partial curve, poor fit]"
